The supplement of paper PMC5770031
“And” between values parts separate entries of the source, which are not always exact repeats. Equal values may be shown once. The list shows a part of the results. Repeats in this data set agree poorly, so a single value says little.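 Flies heterozygous for the ATM8 allele over a balancer chromosome carrying normal ATM were mated with each other on treated food. Parents laid eggs for 5–6 days and the young then developed for about 12 days, so both parents and larvae ate the compound. The read-out is the share of all emerged adults that carry two ATM8 copies, compared with 2% DMSO control vials. The paper called compounds neutral at 10–20% such offspring, harmful below 10%, and helpful above 20%.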

Tested on: Drosophila melanogaster ATM8 (temperature-sensitive ATM allele)
Experiment: fraction of eclosed F1 progeny that are homozygous ATM8 (rescue of developmental lethality); higher = more rescue of ATM8 developmental lethality; extreme values may be limits of the assay
Conditions: compound concentration applied to food 0.2 mM; 21 °C

Going from O=C1C=CC(=C(c2ccc(O)cc2)c2ccc(O)cc2)C=C1 to Cc1ccc(O)cc1.Cc1cccc(O)c1.Cc1ccccc1O, the “fraction of eclosed F1 progeny that are homozygous ATM8” value (“fraction” below) falls from 0.114 to 0.0256.

First: CNC(=C[N+](=O)[O-])NCCSCc1ccc(CN(C)C)o1
Second: CC(=O)Oc1cc(C(C)C)c(OCCN(C)C)cc1C
The “fraction” value of the first is higher: 0.114 for the first, 0.107 for the second.

Compared with COc1cc([C@@H]2c3cc4c(cc3[C@H](O)[C@H]3COC(=O)[C@H]23)OCO4)cc(OC)c1OC, COc1cc2c(cc1OC)[C@@H]1C(=O)c3ccc4oc(C(C)C)cc4c3O[C@@H]1CO2 is higher in “fraction” value: 0.253 for the first, 0.262 for the second.

First: COC(=O)[C@H]1[C@H]2C[C@@H]3c4[nH]c5cc(OC)ccc5c4CCN3C[C@H]2C[C@@H](OC(=O)c2cc(OC)c(OC)c(OC)c2)[C@@H]1OC
Second: CCC(COC(=O)c1cc(OC)c(OC)c(OC)c1)(c1ccccc1)N(C)C (centres undefined)
The “fraction” value of the first is higher: 0.267 for the first, 0.149 for the second.

First: Cc1nc(C)c(Cl)c(O)c1Cl
Second: O=C(Nc1cc(Cl)cc(Cl)c1O)c1c(O)c(Cl)cc(Cl)c1Cl
The “fraction” value of the first is higher: 0.298 for the first, 0.111 for the second.

Compared with O=C(O)P(=O)(O)O, CS(=N)(=O)CC[C@H](N)C(=O)O (some centres undefined) is lower in “fraction” value: 0.14 for the first, 0.118 for the second.

First: CCNC1(c2cccs2)CCCCC1=O (centres undefined)
Second: COC(=O)C(c1ccccc1)C1CCCCN1 (centres undefined)
The “fraction” value of the first is lower: 0.14 for the first, 0.179 for the second.

First: CCCCCCCCCCCCCCCC[N+](C)(C)CCN(Cc1ccc(OC)cc1)c1ncccn1
Second: Cc1cc(C(C)(C)CC(C)(C)C)ccc1OCCOCC[N+](C)(C)Cc1ccccc1
The “fraction” value of the first is higher: 0.0357 for the first, 0.0236 for the second.

Compared with C#C[C@]1(O)CC[C@H]2[C@@H]3CCc4cc(OC)ccc4[C@H]3CC[C@@]21C, C#C[C@]1(O)CC[C@H]2[C@@H]3CCC4=CC(=O)CC[C@@H]4[C@H]3CC[C@@]21C is higher in “fraction” value: 0.188 for the first, 0.2 for the second.

First: CC(C)NCC(O)c1ccc(NS(C)(=O)=O)cc1 (centres undefined)
Second: CC(C)Cc1ccc([C@H](C)C(=O)O)cc1
The “fraction” value of the first is higher: 0.15 for the first, 0.0385 for the second.

Going from CC(=O)N1CCN(c2ccc(OCC3COC(Cn4ccnc4)(c4ccc(Cl)cc4Cl)O3)cc2)CC1 (centres undefined) to CCN(C(C)=O)c1cccc(-c2ccnc3c(C#N)cnn23)c1, the “fraction” value falls from 0.125 to 0.108.

First: CCOc1ccccc1C(N)=O
Second: CCOc1cc(NC(C)=O)ccc1C(=O)OC
The “fraction” value of the first is higher: 0.15 for the first, 0.0526 for the second.

Going from COC(=O)C[C@H]1C(C)(C)[C@@H](OC(C)=O)[C@@H]2CC3=C4CC(=O)O[C@@H](c5ccoc5)[C@]4(C)CC[C@@H]3[C@@]1(C)C2=O to CC(=O)O[C@@H]1C[C@@]2(C)C(CC[C@@H]2C(C)=O)C2CCC3=CC(=O)CC[C@]3(C)C21 (some centres undefined), the “fraction” value rises from 0.182 to 0.196.

Compared with NS(=O)(=O)c1ccc(C(=O)O)cc1, CS(=O)(=O)c1ccc([C@@H](O)[C@@H](CO)NC(=O)C(Cl)Cl)cc1 is lower in “fraction” value: 0.164 for the first, 0.0435 for the second.

Going from C[C@@H]1CC[C@H]2[C@@H](C)C(=O)O[C@@H]3O[C@@]4(C)CC[C@@H]1[C@]32OO4 to C#C[C@]1(O)CC[C@H]2[C@@H]3[C@H](C)CC4=C(CCC(=O)C4)[C@H]3CC[C@@]21C, the “fraction” value falls from 0.226 to 0.0328.

Going from Cc1n[nH]c(=S)[nH]c1=O to O=c1[nH]cc(F)c(=O)[nH]1, the “fraction” value falls from 0.314 to 0.115.

Compared with CC[C@H]1[C@@H]2C[C@H]3[C@@H]4N(C)c5ccccc5[C@]45C[C@@H]([C@@H]2[C@H]5O)N3[C@@H]1O, CO[C@]12C[C@@H](COC(=O)c3cncc(Br)c3)CN(C)[C@@H]1Cc1cn(C)c3cccc2c13 is lower in “fraction” value: 0.1 for the first, 0.0698 for the second.

First: C#C[C@]1(OC(C)=O)CC[C@H]2[C@@H]3CCC4=C[C@@H](OC(C)=O)CC[C@@H]4[C@H]3CC[C@@]21C
Second: CC(=O)OCC(=O)[C@@]1(O)CC[C@H]2[C@@H]3CCC4=CC(=O)CC[C@]4(C)[C@H]3C(=O)C[C@@]21C
The “fraction” value of the first is higher: 0.182 for the first, 0.103 for the second.

Compared with Nc1ccc(S(=O)(=O)Nc2ncccn2)cc1, Nc1ccc(S(=O)(=O)Nc2ccc(Cl)nn2)cc1 is lower in “fraction” value: 0.0769 for the first, 0.0714 for the second.

First: C[C@@H]1CC[C@@]2(OC1)O[C@H]1C[C@H]3[C@@H]4CC[C@H]5C[C@@H](O)CC[C@]5(C)[C@H]4CC[C@]3(C)[C@H]1[C@@H]2C
Second: CC(=O)[C@H]1CC[C@H]2[C@@H]3CC[C@@H]4C[C@H](O)CC[C@]4(C)[C@H]3CC[C@]12C
The “fraction” value of the first is lower: 0.0938 for the first, 0.1 for the second.

Compared with O=c1c(O)c(-c2ccccc2)oc2ccccc12, O=C1c2ccccc2C(=O)c2ccccc21 is lower in “fraction” value: 0.0714 for the first, 0.0652 for the second.

Going from CO[C@@]1(NC(=O)C(C(=O)O)c2ccc(O)cc2)C(=O)N2C(C(=O)O)=C(CSc3nnnn3C)CO[C@@H]21 (some centres undefined) to CO[C@@]1(NC(=O)C2SC(=C(C(N)=O)C(=O)O)S2)C(=O)N2C(C(=O)O)=C(CSc3nnnn3C)CS[C@@H]21 (some centres undefined), the “fraction” value falls from 0.0889 to 0.0556.

First: COC(=O)C1=C(C)NC(C)=C(C(=O)OC)C1c1ccccc1[N+](=O)[O-]
Second: O=C(O)c1cc(=O)c2cccc(O)c2[nH]1
The “fraction” value of the first is higher: 0.195 for the first, 0.132 for the second.

Compared with COc1ccc2c(c1)[nH]c1c(C)nccc12, Cc1cc(NC(=O)C2=C(O)c3ccccc3S(=O)(=O)N2C)no1 is lower in “fraction” value: 0.174 for the first, 0.087 for the second.

Going from Nc1ccc(O)c(C(=O)O)c1 to CC(=O)Oc1c(C)cccc1C(=O)O, the “fraction” value rises from 0.148 to 0.267.

Going from Cc1cc(OC(=O)c2c(C)cc(O)cc2O)cc(O)c1C(=O)O to O=c1cc(-c2cc(O)c(O)c(O)c2)oc2cc(O)cc(O)c12, the “fraction” value rises from 0.0526 to 0.267.

Going from Clc1ccccc1CN1CCc2sccc2C1 to CN(C)CCCN1c2ccccc2CCc2ccc(Cl)cc21, the “fraction” value rises from 0.069 to 0.197.

Compared with N=c1ccn2c(n1)O[C@H]1[C@H](O)[C@@H](CO)O[C@H]12, NC(=O)c1ncn([C@@H]2O[C@H](CO)[C@@H](O)[C@H]2O)c1N is higher in “fraction” value: 0.173 for the first, 0.268 for the second.

First: NCCc1c[nH]c2ccc(O)cc12
Second: Oc1ccc(O)cc1
The “fraction” value of the first is lower: 0.0667 for the first, 0.182 for the second.

Going from C[C@@H](c1ncncc1F)[C@](O)(Cn1cncn1)c1ccc(F)cc1F to CN(C)CCCOc1nn(Cc2ccccc2)c2ccccc12, the “fraction” value rises from 0.0227 to 0.213.

Going from O=[N+]([O-])c1ccc([As](=O)(O)O)cc1 to C[C@@H]1CC(=O)NN=C1c1ccc(NN=C(C#N)C#N)cc1, the “fraction” value rises from 0.0263 to 0.0645.

Compared with C[C@@H]1O[C@@H](Oc2c(-c3ccc(O)c(O)c3)oc3cc(O)cc(O)c3c2=O)[C@H](O)[C@H](O)[C@H]1O, COC1=C(O)C(=O)c2c(cc3oc(C(C)=O)c(O)c3c2O)C1=O is lower in “fraction” value: 0.123 for the first, 0.0909 for the second.

Going from CC(C)[C@@H]1CC[C@@H](C)C[C@H]1O to CC1CCC(NC(=O)N(CCCl)N=O)CC1 (centres undefined), the “fraction” value falls from 0.37 to 0.214.

Going from O=C1C(CC[S+]([O-])c2ccccc2)C(=O)N(c2ccccc2)N1c1ccccc1 (centres undefined) to C[N+]12CCC(CC1)C(OC(=O)C(O)(c1ccccc1)c1ccccc1)C2 (centres undefined), the “fraction” value falls from 0.133 to 0.0968.

Going from CC(=O)OC/C=C(C)/C=C/C=C(C)/C=C/C1=C(C)CCCC1(C)C to CC1=CC(=O)CC(C)(C)C1(O)/C=C/C(C)=C\C(=O)O (mixture of isomers) [ABSCISIC ACID (cis,trans; +/-)], the “fraction” value rises from 0.0513 to 0.152.

Compared with NS(=O)(=O)c1cc2c(cc1Cl)N=C(CSCc1ccccc1)NS2(=O)=O, N[C@@H](COCc1ccccc1)C(=O)O is lower in “fraction” value: 0.075 for the first, 0.0526 for the second.

First: OC[C@@H](O)[C@@H](O)CO
Second: OC[C@@H](O)[C@H]1O[C@@H]2O[C@H](C(Cl)(Cl)Cl)O[C@@H]2[C@H]1O
The “fraction” value of the first is lower: 0.0952 for the first, 0.222 for the second.

Going from CC(C)c1ccc2c(c1)CCC1C(C)(C(N)=O)CCCC21C (centres undefined) to CC1=C2C(O)C(=O)OC3CC4C(C)(C)C(=O)C=C[C@]4(C)C(CC1)[C@]23C (some centres undefined), the “fraction” value rises from 0 to 0.0526.

Going from CCC[C@H](N[C@@H](C)C(=O)N1[C@H](C(=O)O)C[C@@H]2CCCC[C@@H]21)C(=O)O to O=C(O)CCC1NCC2CC1CN1CCCCC21 (centres undefined), the “fraction” value falls from 0.182 to 0.0714.

First: CC(C)(O)CC[C@@H](O)[C@](C)(O)[C@H]1CC[C@@]2(O)C3=CC(=O)[C@@H]4C[C@@H](O)[C@@H](O)C[C@]4(C)[C@H]3CC[C@]12C
Second: CCCCC(=O)O[C@]1(C(=O)CO)[C@@H](C)C[C@H]2[C@@H]3CCC4=CC(=O)C=C[C@]4(C)[C@@]3(F)[C@@H](O)C[C@@]21C
The “fraction” value of the first is higher: 0.153 for the first, 0 for the second.

Compared with Cc1cc2nc3ccc(N(C)C)cc3[s+]c2cc1N, CC(c1cc2ccccc2s1)N(O)C(N)=O (centres undefined) is higher in “fraction” value: 0.152 for the first, 0.217 for the second.

Compared with C[C@H]1C(=O)O[C@@H]2CCN3CC=C(COC(=O)[C@](C)(O)[C@]1(C)O)[C@H]23, C[C@@H]1C(=O)O[C@H]2C[C@@]34[C@H]5C[C@@H](C(C)(C)C)[C@]36[C@@H](OC(=O)[C@@H]6O)O[C@@]4(C(=O)O5)[C@]21O is lower in “fraction” value: 0.188 for the first, 0.105 for the second.

Going from COC[C@]12CN(C=O)[C@@H]3[C@@H]4[C@H](OC)[C@H]1[C@@]3([C@@H](OC)C[C@H]2O)[C@@H]1C[C@@]2(O)[C@H](OC(=O)c3ccccc3)[C@@H]1[C@]4(OC(C)=O)[C@@H](O)[C@@H]2OC to C/C=C(/C)C(=O)O[C@H]1CC[C@@]2(C)[C@@H]3CC[C@H]4[C@]5(O)C[C@H](O)[C@@]6(O)[C@@H](CN7C[C@@H](C)CC[C@H]7[C@@]6(C)O)[C@]5(O)C[C@]42O[C@]13O, the “fraction” value falls from 0.118 to 0.0571.

Going from CC(C)=CCCC1(C)C=Cc2c(O)c3c(c(CC=C(C)C)c2O1)OC12C(=CC4CC1C(C)(C)OC2(C/C=C(/C)C(=O)O)C4O)C3=O (centres undefined) to O=C(O)c1cc(O)c2c(c1)[C@H]([C@H]1c3cc(C(=O)O)cc(O)c3C(=O)c3c(O[C@@H]4O[C@H](CO)[C@@H](O)[C@H](O)[C@H]4O)cccc31)c1cccc(O[C@@H]3O[C@H](CO)[C@@H](O)[C@H](O)[C@H]3O)c1C2=O, the “fraction” value rises from 0.146 to 0.269.

First: S=C=Nc1ccc(N=C=S)cc1
Second: COc1cc(O)c(C(C)=O)c(OC)c1
The “fraction” value of the first is higher: 0.136 for the first, 0.0357 for the second.

First: COc1cc(C(=O)N2CCOCC2)cc(OC)c1OC
Second: CC(=O)OCC1=C(C(=O)O)N2C(=O)[C@@H](N)[C@H]2SC1
The “fraction” value of the first is higher: 0.235 for the first, 0.2 for the second.

Nc1ncnc2c1ncn2[C@@H]1O[C@H](COP(=O)(O)O)[C@@H](O)[C@H]1O was tested, and the “fraction” value was 0.167.

In the case of COc1cc2c(cc1OC)-c1cc3ccc(OC)c(OC)c3c[n+]1CC2, the “fraction” value is reported as 0.125 and 0.115.
